Laboratory results as given in PubChem BioAssay AID2685 (National Center for Advancing Translational Sciences (NCATS), 2010).
Some of the results follow. Shown are side measurements of this screen, not its main read-out; they come without a call. Most of these compounds were active or inconclusive in the main read-out, so they are no random draw. Potencies come from curve fits of mixed quality, noted in brackets.

Assay: qHTS Assay for Lipid Storage Modulators in Drosophila S3 Cells;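 as to cell number change: cells counted by Cell Tracker Red CMTPX staining in the red channel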
Conditions: BODIPY lipid droplet fluorescence, 18-24 h; for cell number change: measured here: cell count max response, cells fed with added oleic acid
Procedure, shortened: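 Drosophila S3 cells got compounds at several concentrations plus oleic acid (400 uM solution). Laser-scanning cytometry with 488 nm excitation read lipid droplets at 500-530 nm and cells at 575-640 nm. Percent activity was relative to 20 uM Triacsin C.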

[1] = measured here: cell number channel AC50, cells fed with added oleic acid
[2] = measured here: lipid fluorescence (Fed channel) AC50, cells fed with added oleic acid

SMILES: CN1CCN(CC(=O)Nc2ccc(S(=O)(=O)N(C)C)cc2)CC1
- cell number change: -31.8%
- AC50 [1]: 29.1 µM [falling, single point]
- AC50 [2]: 29.1 µM [falling, single point]

SMILES: Cc1nc2ccccc2nc(C)c1=NOCc1ccccc1Cl
- cell number change: 8.21%
- AC50 [2]: 8.2 µM [rising, partial curve]

SMILES: CC1CCN(C2(O)C(=O)Nc3ccc(Cl)cc32)CC1 (stereo unspecified)
- cell number change: 13.2%
- AC50 [2]: 18.4 µM [rising, single point]

SMILES: O=C(c1ccc(=O)[nH]c1)N1CCN(S(=O)(=O)c2ccccc2)CC1
- AC50 [2]: 8.2 µM [falling, partial curve]

SMILES: CCN(CC(=O)Nc1ccccc1OC)C(=O)c1cc(-c2ccccc2)nn1-c1ccccc1
- AC50 [1]: 3.66 µM [falling, partial curve]
- AC50 [2]: 4.61 µM [falling, single point]

SMILES: CC(Sc1nnc(-c2cc3ccccc3o2)n1-c1ccccc1)C(=O)O (stereo unspecified)
- cell number change: -24.4%
- AC50 [1]: 2.91 µM [falling, single point]
- AC50 [2]: 3.26 µM [falling, single point]

SMILES: O=C(c1ccc(-c2ccc([N+](=O)[O-])cc2)o1)N1CCCC(C(F)(F)F)C1 (stereo unspecified)
- AC50 [1]: 0.731 µM [rising, full curve]

SMILES: Cc1[nH]n(-c2ccccc2)c(=O)c1C(c1ccc(C(=O)O)cc1)c1c(C)[nH]n(-c2ccccc2)c1=O
- cell number change: 4.16%
- AC50 [2]: 8.2 µM [rising, partial curve, poor fit]

SMILES: Cc1cc(F)ccc1S(=O)(=O)N1CCCOC1CNC(=O)C(=O)NCc1cccnc1 (stereo unspecified)
- AC50 [2]: 29.1 µM [rising, single point]

SMILES: O=S(=O)(c1ccc(NCCOc2ccccc2)nc1)N1CCCC1
- cell number change: 1.1%
- AC50 [2]: 29.1 µM [rising, single point]

SMILES: Cc1ccc(NC(=O)C(C)NC(=O)OCc2ccccc2)cc1C (stereo unspecified)
- cell number change: -38.4%
- AC50 [1]: 25.9 µM [falling, single point]

SMILES: COc1ccccc1NC(=O)N1CCC(C(=O)c2ccc(Cl)cc2)CC1
- cell number change: 31.1%
- AC50 [1]: 0.13 µM [rising, full curve, poor fit]
- AC50 [2]: 0.116 µM [rising, full curve, poor fit]

SMILES: Cc1cccc(NC(=O)CSc2cccc3cccnc23)c1C
- cell number change: -12%

SMILES: CCc1cccc(CC)c1N(COC)C(=O)Cn1ccccc1=N
- cell number change: 5.94%
- AC50 [1]: 0.58 µM [falling, full curve, poor fit]
- AC50 [2]: 2.06 µM [falling, partial curve]

SMILES: C=C(C(=O)c1ccccc1)C(C)CC(=O)c1ccccc1 (stereo unspecified)
- cell number change: -14.2%
- AC50 [2]: 29.1 µM [falling, single point]

SMILES: Cc1ccc(/C(N)=N/OC(=O)C23CC4CC(CC(C4)C2)C3)cc1
- cell number change: -40.9%
- AC50 [1]: 3.66 µM [falling, full curve, poor fit]

SMILES: CCC(C)n1c(SCC(=O)NC2CCS(=O)(=O)C2)nc2ccccc2c1=O (stereo unspecified)
- cell number change: -5.02%

SMILES: Cc1ccc(NC(=O)Nc2ccon2)cc1Cl
- cell number change: -37.1%
- AC50 [1]: 32.6 µM [falling, single point]
- AC50 [2]: 29.1 µM [falling, single point]

SMILES: COc1ccc(CNC(=O)[C@]2(C)CCC[C@@]3(C)C4CC[C@@]5(C)C[C@]4(CCC32)CC5=O)cc1 (stereo partly specified)
- cell number change: -10%
- AC50 [1]: 0.731 µM [falling, single point]

SMILES: O=C(C1CCCCN1S(=O)(=O)c1ccccc1[N+](=O)[O-])N1CCOCC1 (stereo unspecified)
- cell number change: -39.4%
- AC50 [1]: 32.6 µM [falling, single point]

SMILES: COc1cccc(CNCc2ccc3c(c2)OCO3)c1
- cell number change: -5.22%
- AC50 [2]: 29.1 µM [rising, single point]

SMILES: CCN(CC)c1c([N+](=O)[O-])c(=O)n(CC)c2ccccc12
- cell number change: -14.9%
- AC50 [2]: 0.651 µM [falling, full curve, poor fit]

SMILES: O=C(COc1ccc2c(c1)OCO2)Nc1nnc(Cc2ccccc2)s1
- cell number change: 30.8%
- AC50 [1]: 5.8 µM [rising, partial curve]

SMILES: COc1ccc(NC(=O)CN(C)CC(=O)Nc2sc3c(c2C#N)CCC3)cc1
- cell number change: 2.88%
- AC50 [2]: 29.1 µM [rising, single point]

SMILES: Cc1cc(Cl)ccc1NC(=O)CCCN1C(=O)CCC1=O
- AC50 [1]: 0.259 µM [rising, partial curve, poor fit]
- AC50 [2]: 0.411 µM [rising, partial curve, poor fit]

SMILES: COCCNC(=O)CN1C(=O)CC(C)(C)S(=O)(=O)c2ccccc21
- cell number change: 5.39%

SMILES: CC1=C(C(=O)NCc2ccccc2)C(c2ccccc2OCC(N)=O)NC(=O)N1 (stereo unspecified)
- cell number change: -93.5%
- AC50 [1]: 32.6 µM [falling, single point]

SMILES: COc1cccc(CNC(=O)C2Cc3cc(S(=O)(=O)N4CCCC4)ccc3N2C(C)=O)c1OC (stereo unspecified)
- AC50 [2]: 0.58 µM [rising, single point]

SMILES: O=C(N/N=C/c1c[nH]c2ccccc12)c1cc2ccccc2o1
- cell number change: 8.08%
- AC50 [2]: 2.91 µM [rising, single point]

SMILES: Cc1cccc(C(=O)N2CCCC(CCC(=O)N3CCN(c4ccccn4)CC3)C2)c1 (stereo unspecified)
- cell number change: -10.5%
- AC50 [2]: 0.13 µM [rising, full curve, poor fit]

SMILES: O=C(CCN1C(=O)[C@@H]2Cc3ccccc3CN2C1=O)N[C@@H](C(=O)O)c1ccccc1
- cell number change: 17.2%
- AC50 [2]: 16.4 µM [rising, single point]

SMILES: Cc1ccc(S(=O)(=O)NCC(=O)OCC(=O)NCc2cccs2)cc1
- cell number change: 0.509%
- AC50 [2]: 29.1 µM [rising, single point]

SMILES: COC(=O)c1cccc(N(CC(=O)NC2CCCC2)C(=O)CNC(=O)c2cccs2)c1
- cell number change: -32.9%
- AC50 [1]: 6.51 µM [falling, partial curve, poor fit]
- AC50 [2]: 5.62 µM [falling, single point]

SMILES: Cc1ccc(NC(=O)COc2ccccc2[N+](=O)[O-])nc1
- cell number change: 1.96%

SMILES: COc1ccc(NC(=O)Cn2nnc(-c3ccccc3NS(=O)(=O)c3ccc(OC)cc3)n2)cc1
- cell number change: -39.9%
- AC50 [1]: 16.4 µM [falling, single point]
- AC50 [2]: 2.91 µM [falling, full curve]

SMILES: CCOC(=O)C1=C(C)NC2=C(C(=O)CCC2)C1c1cn(Cc2ccc(Cl)cc2Cl)nc1-c1ccccc1 (stereo unspecified)
- cell number change: -18.4%
- AC50 [2]: 0.411 µM [rising, single point]
